Literature values as cited in patent US9669025B2 (INFLAMMATORY RESPONSE RESEARCH, INC., priority 2013, dated 2017).

Chains of the proteins cited; added tags and fusions are not shown.
UniProt P35367, whole entry: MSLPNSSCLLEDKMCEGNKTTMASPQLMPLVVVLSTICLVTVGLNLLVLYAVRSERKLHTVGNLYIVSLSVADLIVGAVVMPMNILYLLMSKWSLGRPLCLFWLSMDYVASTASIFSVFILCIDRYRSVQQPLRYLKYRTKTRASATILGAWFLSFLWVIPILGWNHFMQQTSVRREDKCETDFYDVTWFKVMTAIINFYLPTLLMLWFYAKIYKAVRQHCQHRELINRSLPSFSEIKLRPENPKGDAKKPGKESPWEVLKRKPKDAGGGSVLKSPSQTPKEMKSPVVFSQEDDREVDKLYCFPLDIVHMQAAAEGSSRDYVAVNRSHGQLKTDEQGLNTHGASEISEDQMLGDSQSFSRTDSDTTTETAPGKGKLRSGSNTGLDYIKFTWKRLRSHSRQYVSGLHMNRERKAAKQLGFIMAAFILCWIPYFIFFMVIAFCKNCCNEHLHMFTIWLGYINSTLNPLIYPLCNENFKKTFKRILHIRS

Experiments:
[1] = target: H1 receptor (Homo sapiens, UniProt P35367); conditions: cited from earlier work
[2] = in vivo; cited from earlier work

O=C(O)COCCN1CCN([C@H](c2ccccc2)c2ccc(Cl)cc2)CC1 [levocetirizine]
Receptor affinity in an acidic ph (increased) [1]: increased 5x
time to peak plasma level [2]: 0.9 h
